Some of the results follow. These are raw signals, not scaled to a control.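 In the initial screen, polymyxin B was used at a concentration that permeabilizes Salmonella's outer membrane but not its inner membrane. Maximum growth was set by DMSO wells with or without polymyxin B. Since plates varied, data were ranked per plate, and compounds giving the lowest OD600 advanced as hits.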

In the test the test system is Salmonella enterica serovar Typhimurium SL1344. Briefly: bacterial growth OD600 after 18 h with compound and polymyxin B; higher = more bacterial growth (less inhibition). The settings on record: 50 µM, Mueller-Hinton broth.

As for `CCC1(C2CCN(C(=O)c3ccccc3C(F)(F)F)CC2)NC(=O)N(Cc2ccccn2)C1=O` (stereo not given), the “bacterial growth OD600” value (polymyxin B 0.75 µg/mL) was found to be 0.833.
Consider `COc1ccccc1C(=O)Nc1ccnn1C1CCN(Cc2cc(C(C)C)[nH]n2)CC1`, for which the “bacterial growth OD600” value (polymyxin B 1 µg/mL) worked out at 1.25.
For `C[C@@H]1CN(C2(C(=O)NC(C3CC3)C3CC3)Cc3ccccc3C2)C[C@H](C)O1`, the “bacterial growth OD600” value (polymyxin B 1 µg/mL) stood at 1.06.
On to `O=C1CCCN1CCC(=O)N1CCOC(Cc2cccc(C(F)(F)F)c2)C1` (stereo not given), for which the “bacterial growth OD600” value (polymyxin B 0.75 µg/mL) stood at 0.856.
Regarding `O=C(/C=C/c1cccs1)N1CCC(C2(Cc3ccc(F)cc3)NC(=O)N(C3CCOC3)C2=O)CC1` (stereo not given), the “bacterial growth OD600” value (polymyxin B 0.75 µg/mL) worked out at 0.798.
Turning to `C#CCN(CC=C)C(=O)c1cc(Cn2cnc3cc(C)c(C)cc32)[nH]n1`, the “bacterial growth OD600” value (polymyxin B 1 µg/mL) came out at 1.22.
On the same count and under the same terms, as for `O=C1N(Cc2cccc(F)c2F)CCCC1(O)CN1CCN(CC2CCC2)CC1` (stereo not given), the figure is 0.92.
On to `Cc1cc(O)nc(CNC(=O)C2(N3CCCCC3)Cc3ccccc3C2)n1`, for which the “bacterial growth OD600” value (polymyxin B 0.75 µg/mL) stood at 0.757.
With `COc1cccc(CNCc2c(C(=O)N3CCCCCCC3)nc3ccc(Cl)cn23)c1`, the “bacterial growth OD600” value (polymyxin B 1 µg/mL) turned out to be 0.006.
Take `Cc1nc(N2CCC(NC(Cn3cccn3)c3ccccc3)CC2)nc2ccc(F)cc12` (stereo not given): the “bacterial growth OD600” value (polymyxin B 0.75 µg/mL) stood at 0.002.
In the case of `O=C1O[C@@H]2CN(c3ncccn3)C[C@@H]2N1C1CCCC1`, where the note is “polymyxin B 0.75 µg/mL”, the “bacterial growth OD600” value amounted to 0.872.
`O=C(c1cc(F)c(F)cc1F)N1CCOc2ccc(CN3CCN(c4ccccc4)CC3)cc2C1`: under “polymyxin B 0.75 µg/mL”, the “bacterial growth OD600” value was 0.799.
The same measure, in the same setting: as for `CC1CN(c2ccc(-c3nc(Cc4ccc(F)cc4)no3)cn2)CCN1C` (stereo not given), the figure is 0.237.
Same read-out and setting: with `Cc1ncsc1C(=O)N1CCC(C2CCN(Cc3cccnc3)CC2)C1` (stereo not given) the figure was 1.02.
For the compound `COc1ccccc1CC(=O)NCc1cccnc1N1CCCCCCC1`, the “bacterial growth OD600” value (polymyxin B 1 µg/mL) was determined as 0.659.
As for `O=C(C#Cc1ccccc1)NC1CCCN(C2Cc3ccccc3C2)C1` (stereo not given), the “bacterial growth OD600” value (polymyxin B 1 µg/mL) turned out to be 1.11.
Turning to `COc1cccc(CC(C2CCN(C(=O)COc3ccccc3)CC2)N(C)C(=O)c2ccn(C)n2)c1` (stereo not given), where the note is “polymyxin B 0.75 µg/mL”, the “bacterial growth OD600” value came out at 0.84.
Turning to `O=C(NCC1CCCN(Cc2cc3ccccc3o2)C1)c1cc2ccccc2[nH]1` (stereo not given), the “bacterial growth OD600” value (polymyxin B 1 µg/mL) amounted to 0.815.
Regarding `Cc1ccccc1CCC1CCCN(C(=O)CCc2ccncc2)C1` (stereo not given), the “bacterial growth OD600” value (polymyxin B 1 µg/mL) came out at 0.01.
`C=CCCC(=O)N1CCCC1C(=O)Nc1ccccc1Oc1cccnc1` (stereo not given): the “bacterial growth OD600” value (polymyxin B 1 µg/mL) amounted to 0.784.
